Experiment: general procedure: Fmoc solid-phase peptide synthesis; 2-chlorotrityl resin; HBTU
Conditions: whole synthesis, calculated as tetrakis-trifluoroacetate salt

With Cys-Thr-Gly-deoxyhypusine-His-Gly the isolated yield was 28%.
